Measured values taken from patent US20180038860A1 (published 2018).
These are yes or no findings as the source states them, for the method shown. Some binding calls cover weakened binding; strength is not graded here.

Legend:
[1] = target: T1, CCR4 on Tregs / T cells from patients with Pancreatic Cancer or Urinary Bladder Cancer (human) (UniProt P51679); test: flow cytometry, biotinylated chemokine on CCR4 expressing Tregs of PC and UBC patients
T1 sequence (looked up): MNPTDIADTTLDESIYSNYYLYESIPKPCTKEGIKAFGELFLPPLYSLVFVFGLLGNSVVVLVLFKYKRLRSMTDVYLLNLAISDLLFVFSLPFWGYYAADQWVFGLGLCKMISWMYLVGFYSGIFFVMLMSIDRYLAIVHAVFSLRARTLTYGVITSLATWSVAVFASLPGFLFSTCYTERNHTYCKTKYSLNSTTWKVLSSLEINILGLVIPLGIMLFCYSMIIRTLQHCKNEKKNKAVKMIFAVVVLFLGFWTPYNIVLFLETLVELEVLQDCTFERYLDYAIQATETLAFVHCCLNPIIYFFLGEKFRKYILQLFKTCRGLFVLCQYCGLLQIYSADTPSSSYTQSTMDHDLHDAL

[2] = target: T1, CCR4 on Tregs / T cells from patients with Pancreatic Cancer or Urinary Bladder Cancer (human); test: flow cytometry, 1 µM biotinylated chemokine detected with fluorophore-streptavidin, Tregs of a PC patient

B1: biotinylated MDC (bMDC) (ligand, UniProt O00626 25-93, looked up)
chain: GPYGANMEDSVCCRDYVRYRLPLRVVKHFYWTSDSCPRPGVVLLTFRDKEICADPRVPWVKMILNKLSQ
modifications: biotinylated (site not stated in Example 2B)
[1]
  binding: binds
[2]
  binding: binds
